This is an account of results in article PMC4742869.

The chains behind the UniProt entries cited, without tags or fusion partners. Where a name states a change or a piece, a line headed by the entry shows the natural chain unless it says otherwise.
UniProt P08151: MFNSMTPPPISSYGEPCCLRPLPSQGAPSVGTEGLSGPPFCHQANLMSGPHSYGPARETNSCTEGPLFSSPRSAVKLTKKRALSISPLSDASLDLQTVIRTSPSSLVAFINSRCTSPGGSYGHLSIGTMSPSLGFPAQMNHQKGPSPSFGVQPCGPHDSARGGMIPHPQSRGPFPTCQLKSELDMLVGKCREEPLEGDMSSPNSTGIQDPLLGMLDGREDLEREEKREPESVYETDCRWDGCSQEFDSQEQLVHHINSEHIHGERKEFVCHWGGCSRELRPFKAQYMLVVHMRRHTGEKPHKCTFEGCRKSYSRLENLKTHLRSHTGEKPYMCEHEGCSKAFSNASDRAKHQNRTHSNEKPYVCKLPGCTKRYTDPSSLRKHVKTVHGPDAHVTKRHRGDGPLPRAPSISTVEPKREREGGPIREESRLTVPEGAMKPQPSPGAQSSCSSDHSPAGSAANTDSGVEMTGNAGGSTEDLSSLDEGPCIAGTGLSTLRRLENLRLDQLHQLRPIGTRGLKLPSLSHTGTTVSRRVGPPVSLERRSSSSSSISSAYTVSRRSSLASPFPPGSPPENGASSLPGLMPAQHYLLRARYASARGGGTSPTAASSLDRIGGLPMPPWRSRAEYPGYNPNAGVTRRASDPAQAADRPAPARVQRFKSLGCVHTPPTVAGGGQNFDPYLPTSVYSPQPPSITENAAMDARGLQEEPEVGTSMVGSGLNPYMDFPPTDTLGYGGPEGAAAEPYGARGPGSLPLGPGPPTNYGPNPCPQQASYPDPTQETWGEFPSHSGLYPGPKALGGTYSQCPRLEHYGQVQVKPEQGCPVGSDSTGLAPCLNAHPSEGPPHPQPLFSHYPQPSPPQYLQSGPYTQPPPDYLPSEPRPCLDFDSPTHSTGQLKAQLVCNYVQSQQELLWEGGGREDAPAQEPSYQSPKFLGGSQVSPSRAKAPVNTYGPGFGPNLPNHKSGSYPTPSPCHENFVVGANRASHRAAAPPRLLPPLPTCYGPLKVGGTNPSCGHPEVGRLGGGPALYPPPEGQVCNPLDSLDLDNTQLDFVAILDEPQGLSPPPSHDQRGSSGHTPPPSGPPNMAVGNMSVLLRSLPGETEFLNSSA

The exact form of at least one protein or probe is not confirmed. Results from cells or extracts need not show a direct contact. The comparison behind a weaker result is the experiment's own reference, which may not be listed here. At least one verdict rests on a figure or table, not on a statement of the authors.

This series has as its target GLI1 (UniProt P08151). The series can be described thus: pull-down (streptavidin beads, western blot). The note with it: Oligo loading: 10 mM Tris-HCl pH 7.6, 1 M NaCl, 1 mM EDTA, 30 min RT, binding: 30 mM HEPES pH 7.5, 30 mM KCl, 0.5 mM DTT, 5% glycerol, 30 ug nuclear extract, 37 °C 1 h, protein in an extract, single-stranded DNA. For orientation: In western blotting, separated proteins are transferred to a membrane and probed.

Regarding “GACCACCCA [GLI1 consensus oligonucleotide]”, the binding result is “binds more weakly” (nuclear lysate from cells treated with NQC (nanoquinacrine), NQC doses not given in the material) and “binds” (untreated cells).
